In PubChem BioAssay AID1479 (National Center for Advancing Translational Sciences (NCATS), 2009):
In all, about 280,000 compounds went through this assay and about 820 (0.29%) were called active. Only results without a clear call are listed here; the source files them as inconclusive. Calls come from the whole dose curve; as a rule, active = well fitted curve in either direction with a large enough effect; inconclusive = small, poorly fitted or top-dose-only effect; inactive = flat fitted curve, though single readings scatter.

assay: Total Fluorescence Counterscreen for Inhibitors of the Interaction of Thyroid Hormone Receptor and Steroid Receptor Coregulator 2; conditions: TRb/SRC2 Texas Red total fluorescence interference
Potency is the fitted concentration of half-maximal effect.

Row | Structure (SMILES) | Potency
1 | O=C(O)C1(O)c2ccccc2-c2ccccc21 | inconclusive: 12.6 µM
